One assay deals with insulin receptor (UniProt P06213). The experiment in a line: co-IP.
A further assay deals with SorCS1 (UniProt Q8WY21). The experiment in a line: co-IP.

Protein sequences, listed by entry. Tags and fused reporters are not part of them. Lines headed by an entry give the natural chain unless they say otherwise; changes in a name come on top. Residues count along the entry.
UniProt P06213, residues 28-1382: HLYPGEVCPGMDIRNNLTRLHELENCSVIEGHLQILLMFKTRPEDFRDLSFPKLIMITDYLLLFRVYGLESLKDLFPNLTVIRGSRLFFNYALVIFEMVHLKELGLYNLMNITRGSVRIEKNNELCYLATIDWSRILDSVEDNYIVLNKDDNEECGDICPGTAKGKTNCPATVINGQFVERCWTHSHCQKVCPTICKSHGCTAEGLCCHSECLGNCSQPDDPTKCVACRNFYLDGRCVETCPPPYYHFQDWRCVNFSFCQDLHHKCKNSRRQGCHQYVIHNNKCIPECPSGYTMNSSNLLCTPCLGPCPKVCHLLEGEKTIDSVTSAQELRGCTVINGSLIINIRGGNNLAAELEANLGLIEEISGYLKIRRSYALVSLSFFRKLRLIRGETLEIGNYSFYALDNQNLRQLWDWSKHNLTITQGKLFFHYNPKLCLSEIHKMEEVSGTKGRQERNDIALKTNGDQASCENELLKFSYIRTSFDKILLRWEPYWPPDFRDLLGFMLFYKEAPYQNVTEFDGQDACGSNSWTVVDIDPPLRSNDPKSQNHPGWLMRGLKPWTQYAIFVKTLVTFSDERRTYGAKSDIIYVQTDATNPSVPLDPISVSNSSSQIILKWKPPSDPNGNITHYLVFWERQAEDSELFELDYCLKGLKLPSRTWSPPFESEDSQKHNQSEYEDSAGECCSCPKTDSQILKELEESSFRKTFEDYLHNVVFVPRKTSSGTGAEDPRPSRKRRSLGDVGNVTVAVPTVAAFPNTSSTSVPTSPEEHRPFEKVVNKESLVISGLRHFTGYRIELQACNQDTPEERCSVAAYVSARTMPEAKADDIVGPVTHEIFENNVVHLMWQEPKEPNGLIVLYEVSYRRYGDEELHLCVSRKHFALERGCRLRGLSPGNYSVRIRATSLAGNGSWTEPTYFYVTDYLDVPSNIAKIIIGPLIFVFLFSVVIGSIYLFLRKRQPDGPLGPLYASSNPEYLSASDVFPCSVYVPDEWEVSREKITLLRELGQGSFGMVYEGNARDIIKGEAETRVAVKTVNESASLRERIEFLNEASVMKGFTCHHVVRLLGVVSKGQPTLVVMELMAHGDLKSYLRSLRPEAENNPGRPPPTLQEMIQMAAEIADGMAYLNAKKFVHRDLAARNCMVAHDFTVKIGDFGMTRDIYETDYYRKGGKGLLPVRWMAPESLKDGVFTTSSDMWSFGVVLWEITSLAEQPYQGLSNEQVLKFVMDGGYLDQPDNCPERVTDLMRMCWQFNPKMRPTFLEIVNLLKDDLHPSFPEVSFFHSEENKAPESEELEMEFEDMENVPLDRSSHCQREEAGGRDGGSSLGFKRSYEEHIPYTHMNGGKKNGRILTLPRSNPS
UniProt Q8WY21: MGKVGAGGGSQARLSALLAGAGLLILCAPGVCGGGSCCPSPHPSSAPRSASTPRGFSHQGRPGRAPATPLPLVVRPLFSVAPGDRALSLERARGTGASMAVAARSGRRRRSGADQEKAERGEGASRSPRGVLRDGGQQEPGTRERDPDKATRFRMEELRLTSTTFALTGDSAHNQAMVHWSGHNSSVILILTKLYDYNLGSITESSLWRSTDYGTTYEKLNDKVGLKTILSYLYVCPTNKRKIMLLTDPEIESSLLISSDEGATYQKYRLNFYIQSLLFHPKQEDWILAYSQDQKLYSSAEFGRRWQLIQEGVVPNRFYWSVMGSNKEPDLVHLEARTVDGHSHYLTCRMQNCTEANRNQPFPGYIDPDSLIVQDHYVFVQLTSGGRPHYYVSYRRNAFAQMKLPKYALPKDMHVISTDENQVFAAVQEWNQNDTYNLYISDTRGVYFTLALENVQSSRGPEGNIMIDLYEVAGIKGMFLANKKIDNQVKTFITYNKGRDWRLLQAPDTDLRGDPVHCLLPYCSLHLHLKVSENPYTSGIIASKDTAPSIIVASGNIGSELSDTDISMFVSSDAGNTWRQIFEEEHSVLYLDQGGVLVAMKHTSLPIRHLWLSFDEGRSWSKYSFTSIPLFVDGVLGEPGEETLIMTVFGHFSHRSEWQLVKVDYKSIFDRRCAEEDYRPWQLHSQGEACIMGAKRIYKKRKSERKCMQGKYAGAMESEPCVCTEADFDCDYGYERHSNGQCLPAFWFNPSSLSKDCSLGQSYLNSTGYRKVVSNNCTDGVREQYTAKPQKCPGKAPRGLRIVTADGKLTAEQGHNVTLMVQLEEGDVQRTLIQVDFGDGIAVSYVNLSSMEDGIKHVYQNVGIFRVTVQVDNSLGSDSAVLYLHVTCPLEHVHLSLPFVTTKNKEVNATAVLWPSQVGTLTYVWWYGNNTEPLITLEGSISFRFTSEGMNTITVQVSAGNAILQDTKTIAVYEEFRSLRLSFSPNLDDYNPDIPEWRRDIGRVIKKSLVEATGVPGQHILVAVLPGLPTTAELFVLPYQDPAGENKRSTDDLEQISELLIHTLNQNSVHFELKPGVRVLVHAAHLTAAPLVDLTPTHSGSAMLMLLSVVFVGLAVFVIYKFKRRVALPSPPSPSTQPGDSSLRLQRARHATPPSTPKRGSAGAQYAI

Results are given in words; binding and its absence hold for the method and conditions named. Binding seen in cells or lysates may run through a third protein. A result given as binding can be weak or reduced; the word gives no strength.

Consider SorCS1 (from UniProt Q8WY21) (receptor), for which the binding entry with insulin receptor was “binds”.

In the case of “insulin receptor (from UniProt P06213 28-1382)”, the binding result with SorCS1 is reported as “binds”.

(Values after doi:10.1101/2020.11.10.376178.)
